PubChem BioAssay AID1259254 – NCATS, 2017
Aim: 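Gene knock-downs that lead to re-replication, shown by excess G2 DNA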 (primary screen). Cell system: human HCT116 colorectal cancer cells. Knock-down reagent: single siRNA against human genes. Duration: 3 days. Measurement: 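Nuclei stained with Hoechst and imaged; cell-cycle phase assigned by DNA content; G2 share scaled per plate, non-targeting siRNA 0%, GMNN siRNA 100%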. Direction: G2 robust z-score and G2 cells, % of GMNN control: higher = more G2 cells, more excess DNA replication. Hit rule: 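An siRNA counts as active if its G2 robust z-score lies at least 5 MADs above the screen median; here such calls match roughly 38% of GMNN control or more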.
The whole screen tested about 59,000 reagents; shown is an unselected part. About 1,550 of all reagents (2.6%) were called active. 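G2 share is only a proxy for re-replication; each gene was hit by three separate siRNAs, and active genes were retested.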 Reagents against one gene are numbered here. Not all columns of the deposit are shown. Not stated in the record: the amount of reagent.

| gene symbol | reagent | G2 robust z-score | G2 cells, % of GMNN control | call |
| --- | --- | --- | --- | --- |
| TRIL | 1 | -1.16 | -5.16 | inactive |
| TRIL | 2 | -0.733 | -2.19 | inactive |
| TRIL | 3 | 0.175 | 4.2 | inactive |
| ANKRD40 | 1 | -0.368 | 0.382 | inactive |
| ANKRD40 | 2 | 0.892 | 9.24 | inactive |
| ANKRD40 | 3 | -0.563 | -0.996 | inactive |
| NEB | 1 | -0.409 | 0.0918 | inactive |
| NEB | 2 | -1.27 | -6 | inactive |
| NEB | 3 | -0.309 | 0.796 | inactive |
| OR52E4 | 1 | -0.232 | 1.33 | inactive |
| OR52E4 | 2 | 2.6 | 21.2 | inactive |
| OR52E4 | 3 | -0.319 | 0.724 | inactive |
| HELZ | 1 | -0.641 | -1.54 | inactive |
| HELZ | 2 | -0.472 | -0.35 | inactive |
| HELZ | 3 | 1.55 | 13.9 | inactive |
| VPS54 | 1 | 0.925 | 9.48 | inactive |
| VPS54 | 2 | 0.339 | 5.35 | inactive |
| VPS54 | 3 | 0.423 | 5.94 | inactive |
| FOXN3 | 1 | -0.725 | -2.14 | inactive |
| FOXN3 | 2 | 0.113 | 3.77 | inactive |
| FOXN3 | 3 | 0.193 | 4.33 | inactive |
| RASA4 | 1 | 0.319 | 5.21 | inactive |
| RASA4 | 2 | 1.03 | 10.2 | inactive |
| RASA4 | 3 | 2.37 | 19.7 | inactive |
| HSD3B7 | 1 | -0.108 | 2.21 | inactive |
| HSD3B7 | 2 | 2.22 | 18.6 | inactive |
| HSD3B7 | 3 | -1.61 | -8.36 | inactive |
| SEH1L | 1 | -0.599 | -1.25 | inactive |
| SEH1L | 2 | -0.572 | -1.06 | inactive |
| SEH1L | 3 | 1.65 | 14.6 | inactive |
| PDCD6P1 | 1 | 2.87 | 23.2 | inactive |
| PDCD6P1 | 2 | 3.36 | 26.6 | inactive |
| PDCD6P1 | 3 | 1.91 | 16.4 | inactive |
| ANKRD1 | 1 | 1 | 10 | inactive |
| ANKRD1 | 2 | 7.33 | 54.5 | active |
| ANKRD1 | 3 | 0.121 | 3.82 | inactive |
| PNPLA5 | 1 | -0.938 | -3.63 | inactive |
| PNPLA5 | 2 | -1.21 | -5.54 | inactive |
| PNPLA5 | 3 | 0.397 | 5.76 | inactive |
| APOBEC2 | 1 | 3.3 | 26.2 | inactive |
| APOBEC2 | 2 | -1.32 | -6.29 | inactive |
| APOBEC2 | 3 | -0.42 | 0.00901 | inactive |
| PHF5A | 1 | 0.532 | 6.71 | inactive |
| PHF5A | 2 | 1.12 | 10.8 | inactive |
| PHF5A | 3 | 2.86 | 23.1 | inactive |
| DUSP5 | 1 | -0.3 | 0.859 | inactive |
| DUSP5 | 2 | 2.25 | 18.8 | inactive |
| DUSP5 | 3 | 0.776 | 8.43 | inactive |
| MYL6B | 1 | -1.31 | -6.28 | inactive |
| MYL6B | 2 | -0.476 | -0.38 | inactive |
| MYL6B | 3 | -0.822 | -2.81 | inactive |
| GTF3C6 | 1 | -0.77 | -2.45 | inactive |
| GTF3C6 | 2 | -0.639 | -1.53 | inactive |
| GTF3C6 | 3 | 0.139 | 3.94 | inactive |
| MRPL42 | 1 | -0.742 | -2.25 | inactive |
| MRPL42 | 2 | 0.842 | 8.89 | inactive |
| MRPL42 | 3 | 0.567 | 6.95 | inactive |
| PPARGC1A | 1 | 3.58 | 28.1 | inactive |
| PPARGC1A | 2 | -1.16 | -5.21 | inactive |
| PPARGC1A | 3 | -0.675 | -1.78 | inactive |
| INSL5 | 1 | 1.9 | 16.3 | inactive |
| INSL5 | 2 | -0.429 | -0.0493 | inactive |
| INSL5 | 3 | 2.13 | 18 | inactive |
| FAF1 | 1 | -0.57 | -1.04 | inactive |
| FAF1 | 2 | 0.779 | 8.45 | inactive |
| FAF1 | 3 | -0.59 | -1.18 | inactive |
| HERC4 | 1 | -0.477 | -0.391 | inactive |
| HERC4 | 2 | -0.304 | 0.829 | inactive |
| HERC4 | 3 | -0.973 | -3.88 | inactive |

Limited to “G2 robust z-score” (5 entries from above):
SEH1L #2	-0.572
SEH1L #3	1.65
PDCD6P1 #1	2.87
PDCD6P1 #2	3.36
PDCD6P1 #3	1.91
